{
  "source": "patent US7517840B2",
  "about": "“Optimized perfumery for rinse-off products” (Givaudan Fragrances Corporation, priority 2005, dated 2009)",
  "experiment": "Hedonic profile (odor description) of odorants",
  "data": [
    {"compound": "C=CC(C)(O)CCC=C(C)CC", "note": "(mixture of isomers) [ETHYL LINALOOL]", "values": [
      {"measurement": "Hedonic Profile", "setting": "Table 11", "result": "floral"}
    ]},
    {"compound": "CC(C)=CCCC(C)CCCC(C)C=O", "note": "(stereo not drawn) [ADOXAL, 2,6,10-Trimethyl-9-undecenal]", "values": [
      {"measurement": "Hedonic Profile", "setting": "Table 13", "result": "floral"}
    ]},
    {"compound": "CCCCCC1CCC(=O)O1", "note": "(stereo not drawn) [ALDEHYDE C-18]", "values": [
      {"measurement": "Hedonic Profile", "setting": "Table 11", "result": "coconut"}
    ]},
    {"compound": "C=CCOC(=O)CCC1CCCCC1", "note": "[ALLYL CYCLOHEXYL PROPIONATE]", "values": [
      {"measurement": "Hedonic Profile", "setting": "Table 13", "result": "pineapple"}
    ]},
    {"compound": "C=CCOC(=O)CCCCCC", "note": "[ALLYL HEPTOATE]", "values": [
      {"measurement": "Hedonic Profile", "setting": "Table 11", "result": "fruity banana"}
    ]},
    {"compound": "CC1(C)CCC[C@]2(C)[C@H]3CCO[C@]3(C)CC[C@@H]12", "note": "[AMBROXAN]", "values": [
      {"measurement": "Hedonic Profile", "setting": "Table 14", "result": "ambergris"}
    ]},
    {"compound": "CC/C(=C\\CC1CC=C(C)C1(C)C)CO", "note": "(stereo not drawn) [BACDANOL]", "values": [
      {"measurement": "Hedonic Profile", "setting": "Table 13", "result": "sandalwood"}
    ]},
    {"compound": "CC(=O)OCc1ccccc1", "note": "[BENZYL ACETATE]", "values": [
      {"measurement": "Hedonic Profile", "setting": "Table 11", "result": "jasmine gardenia"}
    ]},
    {"compound": "OCc1ccccc1", "note": "[BENZYL ALCOHOL]", "values": [
      {"measurement": "Hedonic Profile", "setting": "Table 13", "result": "floral"}
    ]},
    {"compound": "CCC(=O)OCc1ccccc1", "note": "[BENZYL PROPIONATE]", "values": [
      {"measurement": "Hedonic Profile", "setting": "Table 11", "result": "sweet fruity"}
    ]},
    {"compound": "Cc1ccc2c(c1)OCC(=O)CO2", "note": "[CALONE]", "values": [
      {"measurement": "Hedonic Profile", "setting": "Table 14", "result": "fresh marine"}
    ]},
    {"compound": "CC/C=C\\CCOC(C)=O", "note": "[CIS-3-HEXENYL ACETATE]", "values": [
      {"measurement": "Hedonic Profile", "setting": "Table 11", "result": "green"}
    ]},
    {"compound": "CC(C)=CCCC(C)CCO", "note": "(stereo not drawn) [CITRONELLOL AJ, FCC, CITRONELLOL]", "values": [
      {"measurement": "Hedonic Profile", "setting": "Table 11", "result": "rose-like"}
    ]},
    {"compound": "CC=CC(=O)C1=C(C)C=CCC1(C)C", "note": "[DAMASCENONE, 1-(2,6,6-Trimethylcyclohexa-1,3-dienyl)-2-buten-1-one]", "values": [
      {"measurement": "Hedonic Profile", "setting": "Table 14", "result": "rose"}
    ]},
    {"compound": "CCC(C)(O)CCC=C(C)C", "note": "(stereo not drawn) [DIHYDROLINALOOL]", "values": [
      {"measurement": "Hedonic Profile", "setting": "Table 11", "result": "fresh floral citrus"}
    ]},
    {"compound": "C=CC(C)CCCC(C)(C)O", "note": "(stereo not drawn) [DIHYDROMYRCENOL]", "values": [
      {"measurement": "Hedonic Profile", "setting": "Table 10", "result": "fresh lime, overall citrus"}
    ]},
    {"compound": "CC(=O)OC(C)(C)Cc1ccccc1", "note": "[DIMETHYL BENZYL CARBINYL ACETATE]", "values": [
      {"measurement": "Hedonic Profile", "setting": "Table 12", "result": "fresh green floral fruity"}
    ]},
    {"compound": "CCOC(=O)C(C)CC", "note": "(stereo not drawn) [ETHYL 2-METHYLBUTYRATE, Ethyl 2-methylbutyrate]", "values": [
      {"measurement": "Hedonic Profile", "setting": "Table 10", "result": "green fruit apple peel"}
    ]},
    {"compound": "CCCC(=O)OCC", "note": "[ETHYL BUTYRATE, Ethyl butyrate]", "values": [
      {"measurement": "Hedonic Profile", "setting": "Table 10", "result": "banana pineapple"}
    ]},
    {"compound": "O=C1CCCCCCCCCCCC(=O)OCCO1", "note": "[ETHYLENE BRASSYLATE]", "values": [
      {"measurement": "Hedonic Profile", "setting": "Table 14", "result": "Musk"}
    ]},
    {"compound": "O=C1CCCCCCCCCCCCCCO1", "note": "[EXALTOLIDE TOTAL]", "values": [
      {"measurement": "Hedonic Profile", "setting": "Table 14", "result": "Musk"}
    ]},
    {"compound": "CC(C)c1cccc(C(C)CC=O)c1", "note": "(stereo not drawn) [FLORHYDRAL]", "values": [
      {"measurement": "Hedonic Profile", "setting": "Table 13", "result": "green floral lilly of the valley"}
    ]},
    {"compound": "CC(C)CC1CC(C)(O)CCO1", "note": "(stereo not drawn) [FLOROL]", "values": [
      {"measurement": "Hedonic Profile", "setting": "Table 13", "result": "floral"}
    ]},
    {"compound": "CCOC(=O)CC1(C)OCCO1", "note": "[FRUCTONE]", "values": [
      {"measurement": "Hedonic Profile", "setting": "Table 11", "result": "green apple-"}
    ]},
    {"compound": "CCCCCCCC1CCC(=O)O1", "note": "(stereo not drawn) [GAMMA UNDECALACTONE]", "values": [
      {"measurement": "Hedonic Profile", "setting": "Table 13", "result": "peach"}
    ]},
    {"compound": "CCCCCCC1CCC(=O)O1", "note": "(stereo not drawn) [GAMMA-DECALACTONE, 5-Hexyldihydro-2(3H)-furanone]", "values": [
      {"measurement": "Hedonic Profile", "setting": "Table 13", "result": "peach"}
    ]},
    {"compound": "CCCCCC1C(=O)CCC1CC(=O)OC", "note": "(stereo not drawn) [HEDIONE]", "values": [
      {"measurement": "Hedonic Profile", "setting": "Table 14", "result": "fruity jasmine"}
    ]},
    {"compound": "CC(C=O)Cc1ccc2c(c1)OCO2", "note": "(stereo not drawn) [HELIONAL]", "values": [
      {"measurement": "Hedonic Profile", "setting": "Table 13", "result": "green floral"}
    ]},
    {"compound": "CCCCCCC(C=O)=Cc1ccccc1", "note": "[HEXYL CINNAMIC ALDEHYDE, hexyl cinnamic aldehyde]", "values": [
      {"measurement": "Hedonic Profile", "setting": "Table 13", "result": "jasmine"}
    ]},
    {"compound": "CC(=O)C=CC1=C(C)CCCC1(C)C", "note": "[IONONE BETA PURE, 4-(2,6,6-Trimethyl-1-cyclohexen-1-yl)-3-buten-2-one]", "values": [
      {"measurement": "Hedonic Profile", "setting": "Table 12", "result": "woody violet"}
    ]},
    {"compound": "CC/C=C\\CCOC(=O)OC", "note": "[LIFFAROME]", "values": [
      {"measurement": "Hedonic Profile", "setting": "Table 11", "result": "green fruity floral"}
    ]},
    {"compound": "C=CC(C)(O)CCC=C(C)C", "note": "(stereo not drawn) [LINALOOL, linalool]", "values": [
      {"measurement": "Hedonic Profile", "setting": "Table 10", "result": "flowery fresh lily of the"}
    ]},
    {"compound": "CC1OC(C)C2Cc3ccccc3C2O1", "note": "(stereo not drawn) [MAGNOLAN/CORPS 719]", "values": [
      {"measurement": "Hedonic Profile", "setting": "Table 13", "result": "magnolia grapefruit"}
    ]},
    {"compound": "CCCC(C)C(=O)OCC", "note": "(stereo not drawn) [MANZANATE, Ethyl 2-methylpentanoate]", "values": [
      {"measurement": "Hedonic Profile", "setting": "Table 10", "result": "fruity apple"}
    ]},
    {"compound": "COC(=O)c1c(C)cc(O)c(C)c1O", "note": "[METHYL ATRATATE]", "values": [
      {"measurement": "Hedonic Profile", "setting": "Table 14", "result": "Moss"}
    ]},
    {"compound": "CC(C)=CC1CC(C)CCO1", "note": "(stereo not drawn) [ROSE OXIDE (HIGH CIS), Tetrahydro-4-methyl-2-(2-methylpropen-1-yl)pyran]", "values": [
      {"measurement": "Hedonic Profile", "setting": "Table 11", "result": "geranium and carrot leaves"}
    ]},
    {"compound": "CC1=CCC(CCC(C)C(C)O)C1(C)C", "note": "(stereo not drawn) [SANDALORE]", "values": [
      {"measurement": "Hedonic Profile", "setting": "Table 14", "result": "sandalwood"}
    ]},
    {"compound": "CC(=O)OC(C)(C)C1CC=C(C)CC1", "note": "(stereo not drawn) [TERPINYL ACETATE]", "values": [
      {"measurement": "Hedonic Profile", "setting": "Table 12", "result": "bergamot lavender"}
    ]},
    {"compound": "CC1=CC(C)C(C=O)CC1", "note": "(stereo not drawn) [TRIPLAL]", "values": [
      {"measurement": "Hedonic Profile", "setting": "Table 10", "result": "green slightly"}
    ]},
    {"compound": "CCC=C(C)C(O)CCCCC", "note": "(stereo not drawn) [UNDECAVERTOL, 4-Methyl-3-decen-5-ol]", "values": [
      {"measurement": "Hedonic Profile", "setting": "Table 13", "result": "green floral violet leaf like"}
    ]},
    {"compound": "CC(=O)OC1CCCCC1C(C)(C)C", "note": "(stereo not drawn) [VERDOX]", "values": [
      {"measurement": "Hedonic Profile", "setting": "Table 11", "result": "fruity agrumen"}
    ]},
    {"compound": "CC(=O)OC1CCC(C(C)(C)C)CC1", "note": "(stereo not drawn) [VERTENEX HC]", "values": [
      {"measurement": "Hedonic Profile", "setting": "Table 12", "result": "woody"}
    ]},
    {"compound": "CC=CC(=O)C1C(C)=CCCC1(C)C", "note": "(stereo not drawn) [alpha-DAMASCONE, α-1-(2,6,6-Trimethyl-2-cyclohexen-1-yl)-2-buten-1-one]", "values": [
      {"measurement": "Hedonic Profile", "setting": "Table 13", "result": "fruity floral"}
    ]},
    {"compound": "C=C(C)[C@H]1CC=C(C)CC1", "note": "[d-LIMONENE, d-1-Methyl-4-isopropenyl-1-cyclohexene]", "values": [
      {"measurement": "Hedonic Profile", "setting": "Table 9", "result": "lemon-like"}
    ]},
    {"compound": "VERTOFIX COEUR", "values": [
      {"measurement": "Hedonic Profile", "setting": "Table 14", "result": "woody"}
    ]}
  ]
}
